Assay results published in US20250313644A1.
Where a chain is given by its changes, count along the chain named. These are yes or no findings as the source states them, for the method shown. Some binding calls cover weakened binding; strength is not graded here.

Protein sequences, listed by entry. Tags and fused reporters are not part of them. Lines headed by an entry give the natural chain unless they say otherwise; changes in a name come on top.
UniProt O95150: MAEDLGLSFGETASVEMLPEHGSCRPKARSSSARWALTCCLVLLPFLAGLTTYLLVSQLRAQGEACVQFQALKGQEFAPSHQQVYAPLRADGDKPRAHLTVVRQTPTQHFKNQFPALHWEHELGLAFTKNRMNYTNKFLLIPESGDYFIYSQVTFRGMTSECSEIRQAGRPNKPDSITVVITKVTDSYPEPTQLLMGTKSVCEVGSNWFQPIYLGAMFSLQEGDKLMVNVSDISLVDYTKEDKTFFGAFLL

Assays:
[1] = target: human TL1A (HuTL1A) (human) (UniProt O95150); assay: ELISA, biotin-HuTL1A on streptavidin, pH 7.4, 5.8, 5.6
[2] = target: human TL1A (HuTL1A) (human) (UniProt O95150); assay: ELISA: biotin-HuTL1A on streptavidin plate, antibody diluted at pH 5.6, HRP-anti-human Fc, OD450
[3] = target: human TL1A (HuTL1A) (human) (UniProt O95150); assay: ELISA: biotin-HuTL1A on streptavidin plate, antibody diluted at pH 5.8, HRP-anti-human Fc, OD450
[4] = target: human TL1A (HuTL1A) (human) (UniProt O95150); assay: ELISA: biotin-HuTL1A on streptavidin plate, antibody diluted at pH 7.4, HRP-anti-human Fc, OD450
[5] = target: human TL1A (HuTL1A) (human) (UniProt O95150); assay: competition ELISA: antibody dilution mixed 1:1 with Biotin-TL1A, added to coated DcR3 (1 µg/mL), Streptavidin-HRP, OD450; blocked partner of TL1A: DcR3
[6] = target: human TL1A (HuTL1A) (human) (UniProt O95150); assay: negative staining electron microscopy
[7] = target: human TL1A (HuTL1A) (human) (UniProt O95150); assay: negative staining electron microscopy, 2D average analysis
[8] = target: human TL1A (HuTL1A) (human) (UniProt O95150); assay: SEC of an equimolar mixture of HuTL1A and antibody (60 µM, 30 min at room temperature)
[9] = target: human TL1A (HuTL1A) (human) (UniProt O95150); assay: SEC of Fab:antigen mixtures at different ratios
[10] = target: human TL1A (HuTL1A) (human) (UniProt O95150); assay: SEC of M701-4007 Fab : HuTL1A mixtures at ratios 0.5:1, 2:1, 3:1 and 6:1, with Fab alone and HuTL1A alone

Measured: binding

B1: M701-3966 (antibody, human IgG1, kappa, L234A L235A, V domains shown)
VH: ELQLQESGPGLVKPSETLSLTCAVSGVSFSDYHWAWIRQPPGKGLEWIGDINHRGHTNYNPSLKSRVTVSIDTSKNQFSLKLSSVTAADTAVYFCARDFPNFIFDYWGQGTLVTVSS
VL: DIQLTQSPGTLSLSPGERATLSCRASQSVSSYLAWYQQKPGQAPRLLIYGASKRATGIPDRFSGSGSGTDFTLTISRLEPEDFAVYYCQQYGDSPLTFGQGTKVEIKR
binds: [1] | [2] | [3] | [4] | [5]

B2: M701-4007 (antibody, human IgG1, kappa, L234A L235A, V domains shown)
VH: B1 VH with Y106F
VL: B1 VL with S31T
not listed: [9] | [10]
binds: all other assays above

B3: M701-4007 Fab (Fab, V domains shown)
VH: B1 VH with Y106F
VL: DIQLTQSPGTLSLSPGERATLSCRASQSVSTYLAWYQQKPGQAPRLLIYGASKRATGIPDRFSGSGSGTDFTLTISRLEPEDFAVYYCQQYGDSPLTFGQGTKVEIK
binds: [9] | [10]

B4: M701-4019 (antibody, human IgG1, kappa, L234A L235A, V domains shown)
VH: B1 VH with S30T, F94Y, F99Y, F104Y
VL: B1 VL with S31N, K53R, D60A, R77S, G92A, D93A
binds: [5]
